The values below come from PMC3760890.

No constants are given. Whether binding was seen depends on the method and setting. For some assays here: Binding seen in cells or lysates may run through a third protein. Some binding calls cover weakened binding; strength is not graded here. Sequences can lack the tags named with a protein.

Assay [1] has as its target T1, GST-pTAC5 (Arabidopsis thaliana) (UniProt A1A6M1).
T1 sequence: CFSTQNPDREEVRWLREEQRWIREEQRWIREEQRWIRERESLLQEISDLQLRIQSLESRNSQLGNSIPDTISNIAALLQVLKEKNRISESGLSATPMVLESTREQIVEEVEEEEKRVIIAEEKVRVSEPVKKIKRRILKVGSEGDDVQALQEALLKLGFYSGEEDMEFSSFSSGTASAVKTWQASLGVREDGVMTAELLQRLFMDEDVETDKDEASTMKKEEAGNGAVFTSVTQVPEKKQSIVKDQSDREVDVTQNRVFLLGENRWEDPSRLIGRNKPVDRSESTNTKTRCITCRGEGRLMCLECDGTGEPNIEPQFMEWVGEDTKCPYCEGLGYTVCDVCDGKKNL
The assay can be described thus: pull-down; GST-fused and His-fused proteins from E. coli incubated with glutathione sepharose 4B beads 2 h at 4 °C; washed with 20 mM Tris-HCl, 0.1 mM EDTA, 100 mM NaCl, 0.2% Triton X-100, pH 7.4; protein gel blots.

Assay [2] has as its target FLN1 (Fructokinase-Like Protein1), yeast two-hybrid fusion (Arabidopsis thaliana) (UniProt Q9M394). The assay is described as follows: two-hybrid; pairwise tests in yeast, pGBKT7 (BD) and pGADT7 (AD) fusions.

B1: FLN2-His (protein, UniProt F4I0K2 45-614)
chain: AAGRRKLSESAPLEEEGNDGNGAVVGKKPSKSVKRTTKKKVVVKDEPLEEISEFLVDNDDVLDKESIVSALKPKKTRTRKKAAAASSDVEEVKTEKKVRRKRTVKKDKDVEDDLATIMDAEVSDVEEALAVESTDTESEEEEIDLSKHEGEDISHTYGWPPLVCCFGSAQHAFVPSGRPANRLLDYELHERMRDAKWAPEKYIRAPGGCAGGVAIALASLGGKVAFMGKLGADDYGQAMLYYLNVCKVQTRSVKIDGKRVTACSTMKISKRGRLKSTCIKPCAEDSLSKSEINVDVLKEAKMFYFSTHSLLDKKMMSTTIQAIKISKQLGNVIFYDLNLPLPLWHSSEETKSFIQEVWNLADVIEITKQELEFLCGIEPTEEFDTENNDISKFVHYPPETVEQLWHENLKVLFVTNGTSKIHYYTKEHNGAVSGMEDVPITPFTRDMSASGDGIVAGLIRMLTVQPDLMNNKGYLERTARYAIECGIIDQWLLAQTRGYPPKDDMEEEEDDEEEDEVESDPNGIRSITEKEYRTSKPYDEPDGPYVMKPVEEREYKKLELVGSMFEDGSL
Consider B1, for which the binding result in assay [1] is on record as “binds”.

B2: FLN1 (Fructokinase-Like Protein1), yeast two-hybrid fusion (protein, UniProt Q9M394 1-471)
chain: MASLLIFPHLHHFDSSLDRREVLVVRHSQASRRFLTPKASINGSGITNGAAAETTSKPSRKGRKKKQTSTVIEKDNTETDPELNPELADYDDGIEFPYDDPPLVCCFGAVQKEFVPVVRVHDNPMHPDMYSQWKMLQWDPPEFGRAPGGPPSNVAISHVRLGGRAAFMGKVGEDDFGDELVLMMNQERVQTRAVKFDENSKTACTRVKIKFKDGKMMAETVKEPPEDSLFASELNLAVLKEARIFHFNSEVLTSPTMQSTLFTAIQWSKKFGGLIFFDLNLPLPLWRSRNETRKLIKKAWNEANIIEVSQQELEFLLDEDYYERRRNYTPQYFAEDFDQTKNRRDYYHYTPEEIKSLWHDKLKLLVVTDGTLRLHYYTPTFDGVVIGTEDVLITPFTCDRTGSGDAVVAGIMRKLTTCPEMFEDQDVMERQLRFAVAAGIIAQWTIGAVRGFPTESATQNLKEQVYVPSMW
For the molecule B2, the binding entry in assay [2] was “binds”.
